{"sequences": {"note": "The chains behind the UniProt entries cited, without tags or fusion partners.", "UniProt P49815": "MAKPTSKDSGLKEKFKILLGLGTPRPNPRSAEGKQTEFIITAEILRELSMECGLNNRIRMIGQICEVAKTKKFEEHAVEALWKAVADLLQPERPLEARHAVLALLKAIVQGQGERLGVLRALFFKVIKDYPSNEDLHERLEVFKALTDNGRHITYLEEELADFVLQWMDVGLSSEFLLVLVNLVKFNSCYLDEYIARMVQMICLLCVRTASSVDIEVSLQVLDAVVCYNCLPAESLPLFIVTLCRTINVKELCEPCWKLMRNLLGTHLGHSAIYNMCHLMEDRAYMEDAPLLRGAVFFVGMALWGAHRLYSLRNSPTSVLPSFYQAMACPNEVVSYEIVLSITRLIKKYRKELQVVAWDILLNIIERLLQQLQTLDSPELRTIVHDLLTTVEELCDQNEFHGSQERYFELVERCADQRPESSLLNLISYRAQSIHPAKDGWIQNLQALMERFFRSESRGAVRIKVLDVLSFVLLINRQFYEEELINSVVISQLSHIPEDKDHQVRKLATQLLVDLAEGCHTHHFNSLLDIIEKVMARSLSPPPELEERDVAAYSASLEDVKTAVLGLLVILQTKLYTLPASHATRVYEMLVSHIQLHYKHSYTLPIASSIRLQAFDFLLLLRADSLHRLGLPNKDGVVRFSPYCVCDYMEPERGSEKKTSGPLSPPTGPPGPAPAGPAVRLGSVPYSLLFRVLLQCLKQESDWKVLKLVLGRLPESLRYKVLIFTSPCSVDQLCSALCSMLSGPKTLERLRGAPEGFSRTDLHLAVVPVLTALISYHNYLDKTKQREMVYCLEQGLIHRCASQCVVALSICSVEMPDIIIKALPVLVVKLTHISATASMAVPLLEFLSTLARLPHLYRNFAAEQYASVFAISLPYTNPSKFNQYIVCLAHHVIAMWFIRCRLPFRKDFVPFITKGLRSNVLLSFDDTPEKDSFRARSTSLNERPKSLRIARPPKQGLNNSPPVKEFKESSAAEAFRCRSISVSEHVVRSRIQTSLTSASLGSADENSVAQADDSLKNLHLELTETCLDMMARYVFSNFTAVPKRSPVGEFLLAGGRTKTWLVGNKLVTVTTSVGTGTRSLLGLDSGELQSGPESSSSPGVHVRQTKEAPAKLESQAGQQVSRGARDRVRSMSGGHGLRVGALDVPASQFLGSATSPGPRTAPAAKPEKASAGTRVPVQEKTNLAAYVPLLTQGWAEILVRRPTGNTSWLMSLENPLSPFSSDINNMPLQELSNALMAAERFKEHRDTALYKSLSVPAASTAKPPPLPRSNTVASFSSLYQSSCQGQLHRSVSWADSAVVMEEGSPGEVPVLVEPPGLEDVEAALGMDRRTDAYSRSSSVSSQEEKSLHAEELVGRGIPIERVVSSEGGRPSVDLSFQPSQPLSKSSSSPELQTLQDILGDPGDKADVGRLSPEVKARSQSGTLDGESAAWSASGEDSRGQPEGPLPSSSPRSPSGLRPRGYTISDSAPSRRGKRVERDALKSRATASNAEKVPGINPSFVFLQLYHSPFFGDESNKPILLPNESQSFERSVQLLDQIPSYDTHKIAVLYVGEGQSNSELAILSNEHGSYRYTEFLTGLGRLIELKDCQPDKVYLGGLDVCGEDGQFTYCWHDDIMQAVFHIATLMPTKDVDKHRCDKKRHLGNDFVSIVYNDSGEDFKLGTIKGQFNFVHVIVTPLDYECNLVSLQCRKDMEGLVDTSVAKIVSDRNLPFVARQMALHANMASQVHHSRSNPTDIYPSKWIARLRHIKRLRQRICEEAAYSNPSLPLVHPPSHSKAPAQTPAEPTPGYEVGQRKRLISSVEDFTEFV"}, "source": "paper doi:10.1101/2022.10.03.510455", "binders": {"B1": {"name": "Myc tagged TSC1 (protein, UniProt Q92574 1-1164)", "chain": "MAQQANVGELLAMLDSPMLGVRDDVTAVFKENLNSDRGPMLVNTLVDYYLETSSQPALHILTTLQEPHDKHLLDRINEYVGKAATRLSILSLLGHVIRLQPSWKHKLSQAPLLPSLLKCLKMDTDVVVLTTGVLVLITMLPMIPQSGKQHLLDFFDIFGRLSSWCLKKPGHVAEVYLVHLHASVYALFHRLYGMYPCNFVSFLRSHYSMKENLETFEEVVKPMMEHVRIHPELVTGSKDHELDPRRWKRLETHDVVIECAKISLDPTEASYEDGYSVSHQISARFPHRSADVTTSPYADTQNSYGCATSTPYSTSRLMLLNMPGQLPQTLSSPSTRLITEPPQATLWSPSMVCGMTTPPTSPGNVPPDLSHPYSKVFGTTAGGKGTPLGTPATSPPPAPLCHSDDYVHISLPQATVTPPRKEERMDSARPCLHRQHHLLNDRGSEEPPGSKGSVTLSDLPGFLGDLASEEDSIEKDKEEAAISRELSEITTAEAEPVVPRGGFDSPFYRDSLPGSQRKTHSAASSSQGASVNPEPLHSSLDKLGPDTPKQAFTPIDLPCGSADESPAGDRECQTSLETSIFTPSPCKIPPPTRVGFGSGQPPPYDHLFEVALPKTAHHFVIRKTEELLKKAKGNTEEDGVPSTSPMEVLDRLIQQGADAHSKELNKLPLPSKSVDWTHFGGSPPSDEIRTLRDQLLLLHNQLLYERFKRQQHALRNRRLLRKVIKAAALEEHNAAMKDQLKLQEKDIQMWKVSLQKEQARYNQLQEQRDTMVTKLHSQIRQLQHDREEFYNQSQELQTKLEDCRNMIAELRIELKKANNKVCHTELLLSQVSQKLSNSESVQQQMEFLNRQLLVLGEVNELYLEQLQNKHSDTTKEVEMMKAAYRKELEKNRSHVLQQTQRLDTSQKRILELESHLAKKDHLLLEQKKYLEDVKLQARGQLQAAESRYEAQKRITQVFELEILDLYGRLEKDGLLKKLEEEKAEAAEAAEERLDCCNDGCSDSMVGHNEEASGHNGETKTPRPSSARGSSGSRGGGGSSSSSSELSTPEKPPHQRAGPFSSRWETTMGEASASIPTTVGSLPSSKSFLGMKARELFRNKSESQCDEDGMTSSLSESLKTELGKDLGVEAKIPLNLDGPHPSPPTPDSVGQLHIMDYNETHHEHS"}}, "target": "FLAG tagged TSC2 (UniProt P49815)", "assay": "single molecule pulldown", "note": "Results are given in words; binding and its absence hold for the method and conditions named. Some entries that bind do so weakly or less than the wild type. Sequences can lack the tags named with a protein.", "data": [{"binder": "B1", "values": [{"measurement": "binding", "value": "binds"}]}]}
